Assay results as given in PubChem BioAssay AID1794844 (National Center for Advancing Translational Sciences (NCATS), 2023).
Fewer than 10 of roughly 2,800 compounds were called active. Inconclusive results (about 7%) are left out. Calls come from the whole dose curve; as a rule, active = well fitted inhibition curve with a large enough effect; inconclusive = small, poorly fitted or top-dose-only effect; inactive = no such curve, though single readings can be large or run the other way. Some of the results follow.

Amino acid sequences for entries named in this document (tags omitted). A change or cut given only in a name is not applied to a line headed by its entry.
UniProt C7C422: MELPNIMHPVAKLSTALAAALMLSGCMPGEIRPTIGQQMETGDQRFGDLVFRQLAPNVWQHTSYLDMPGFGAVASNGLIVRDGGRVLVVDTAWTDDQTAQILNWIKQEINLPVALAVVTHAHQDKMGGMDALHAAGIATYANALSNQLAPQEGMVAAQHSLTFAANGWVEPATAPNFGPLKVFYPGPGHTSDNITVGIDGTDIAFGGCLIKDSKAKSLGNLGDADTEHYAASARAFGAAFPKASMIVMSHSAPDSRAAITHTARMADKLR

target: Metallo-beta-lactamase type 2 (Klebsiella pneumoniae) (UniProt C7C422); experiment: qHTS to identify inhibitors of the New Delhi Metallo-beta-lactamase (NDM): Nitrocefin screen against the machine-based learning selections.; note: % of control where 0% means no effect; settings: NDM-1 enzyme, nitrocefin hydrolysis, absorbance 485 nm; activity, negative = inhibition: at the top concentration
Procedure, shortened: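 Hydrolysis by 2 nM NDM-1 was followed by absorbance after >30 min compound preincubation in HEPES pH 7.0 buffer with 1 uM Zn2SO4. For nitrocefin (16.7 uM, 15 min, 485 nm) and meropenem (50 uM, 30 min, 300 nm), each substrate ran on separate plates.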

activity, negative = inhibition, inactive:
O=C(Cc1ccccc1O)N1CCCC(CCc2c(F)cccc2F)C1 (configuration not stated) -8.74%
CCS(=O)(=O)N1CCC(Cc2nc(-c3cccnc3)n[nH]2)C1 (configuration not stated) 3.9%
COc1ccccc1C(O)c1nc(Nc2ccc(Cl)cc2F)n[nH]1 (configuration not stated) -0.615% [at 57.5 µM]
CN1CCC(C2CCN(C(=O)NC3CCCC3)C2)CC1 (configuration not stated) 4.7%
C=CCC1(CO)CCCN(CCS(=O)(=O)c2ccccc2)C1 (configuration not stated) 4.09%
OCC1(CC2CC2)CCCN(c2nccc(C(F)(F)F)n2)C1 (configuration not stated) -0.503%
Cc1ccccc1-c1nccn2c(C3CN(Cc4ccccc4O)C3)ncc12 -0.386% [at 57.5 µM]
CN(C)c1ccc(CN[C@H]2C[C@H]3C(=O)NC[C@@H](CCC(=O)N4CCC(O)CC4)N3C2)cc1 -0.133%
COc1ccc(OCc2nc(C(=O)N3CCCC(C(C)(C)O)C3)co2)cc1 (configuration not stated) 7.43%
Cn1cc(-c2cnc(NC(=O)c3c[nH]c4ccccc34)c3c2CCO3)cn1 0.246% [at 57.5 µM]
OC(c1ccc2c(c1)CCO2)c1nc(Nc2cccc(C(F)(F)F)c2)n[nH]1 (configuration not stated) 0.833% [at 57.5 µM]
O=C1CCCCCN1CC(=O)N1CCCC(OCc2ccccc2)C1 (configuration not stated) -3.46%
COc1ccc(N2C(=O)[C@@H]3[C@@H](CCN3C(=O)C(C)(C)C)N(Cc3ccccc3)C2=O)cc1 0.894% [at 57.5 µM]
O=C1[C@@H]2[C@@H](CCN2C(=O)NC2CCCCC2)N(Cc2cccs2)C(=O)N1c1cccc(F)c1 1.63%
COCCNS(=O)(=O)c1cc(C(=O)O)cc(-c2cccc3cccnc23)c1 3.02%
O=C(NC[C@H]1OC[C@@H](NCc2ccccc2O)[C@@H]1O)Nc1ccccc1 -1.45% [at 57.5 µM]
C[C@H]1[C@@H]2[C@@H](O)C([C@H](C)C(=O)NCc3ccccn3)CC[C@@]2(C)CC[C@@H]1NC(=O)c1ccc(C#N)cc1 (some centres not stated) 2.85%
O=C1COc2ccc(-c3ccsc3)nc2CN1 0.133% [at 76.7 µM]
Cc1noc([C@@H](C)NC(=O)Cc2ccccc2)c1C(=O)O -1.32% [at 76.7 µM]
COc1ccc(-c2noc(C(=O)NC3CCC3)c2[C@H](C)O)cc1 0.238% [at 57.5 µM]
CC(C)NC(=O)N[C@H]1CCN2C(=O)c3cc(-c4ccc(F)cc4F)ccc3NC(=O)[C@H]12 -2.13% [at 57.5 µM]
CC(=O)c1sccc1-c1cc(NCc2ccccn2)nc2[nH]ccc12 4.34%
CC1=C[C@@H](CNC(=O)COc2ccccc2)[C@H](C(C)C)C[C@H]1Cc1nc2ccncc2[nH]1 -7.2% [at 57.5 µM]
O=C(NCc1nnc2ccc(-c3ccc(F)cc3)nn12)c1ccoc1 -0.325%
O=C(C1CC2(CCNCC2)CN1)N1CCC(c2nc3ccccc3[nH]2)CC1 (configuration not stated) 9.6%
Nc1nc(CCC(=O)N2CCn3nc(C(O)c4ccccc4)cc3C2)cs1 (configuration not stated) 5.85%
COCCN1C(=O)CO[C@H]2CN(C(=O)c3ccc(F)cc3)C[C@H]21 -1.8% [at 57.5 µM]

Structures from the list above containing a CF3 group, in the order listed:
activity, negative = inhibition, inactive:
OCC1(CC2CC2)CCCN(c2nccc(C(F)(F)F)n2)C1 (configuration not stated) -0.503%
OC(c1ccc2c(c1)CCO2)c1nc(Nc2cccc(C(F)(F)F)c2)n[nH]1 (configuration not stated) 0.833% [at 57.5 µM]
